According to patent publication US20250269018A1, “COMBINED CANCER THERAPY WITH AN EPITHELIAL CELL ADHESION MOLECULE (EPCAM) INHIBITOR AND A HEPATOCYTE GROWTH FACTOR RECEPTOR (HGFR) INHIBITOR” (ACADEMIA SINICA, priority 2021, published 2025):
At least one compound was matched to its structure with a doubt left.

Key:
[1] = tested on: GSK3β, active β-catenin and Snail; experiment: Western blotting of GSK3β, active β-catenin, Snail and EMT proteins in HCT116 cells; type: cell-based, human; conditions: LY294002 25 μM, U0126 20 μM or PF-562271 10 μM 1 h before 50 nM EpEX-His for 24 min, FIG. 4J
Experimental: FIGS. 4A to 4L. EpEX induces EMT and invasion by stabilizing β-catenin and Snail through decreasing GSK3β activity. (FIG. 4A) The protein expression of EMT markers and regulators was detected by Western blotting in Wild-type (WT) or EpCAM knockout (KO) HCT116 cells after EpEX treatment. (FIG. 4B) Cell invasion was examined by Transwell chamber assay with matrigel. (FIG. 4C) WT or KO HCT116 and HT29 cells were starved for 16 h, then treated with 0.5 nM of HGF with 2% FBS for 24 h. EMT-related protein expression (E-cadherin, vimentin, and Snail) was examined by Western blotting. (FIG. 4D) WT or KO HCT116 and HT29 cells were treated with HGF (0.5 nM) for 24 h. […] Cell invasion was assessed by a Transwell assay with matrigel. […] Phosphorylated GSK3β, active-β-catenin, and Snail were detected by Western blotting. […] (FIG. 4L) Protein expression was analyzed by Western blotting in EpEX-His (50 nM) treated HCT116 cells after treatment with or without 2 μM GSK3β inhibitor (BIO) for 24 h. Quantification of the normalized protein expression in the right panel.
FIGS. 5A to 5I. […] (FIG. 5A) The gene expression of EMT markers and regulators was detected by qRT-PCR in Wild-type (WT) or EpCAM knockout (KO) of HCT116 and HT29 cells. […] (FIG. 5C) The protein expression of Snail was analyzed in WT or KO HCT116 cells by treating with or without […] MG132 (proteasome inhibitor) for 6 h, followed by Western blotting. […]

[2] = tested on: HCT116 cells; experiment: Transwell migration/invasion and wound healing assay, HCT116; type: cell-based, human
Experimental: FIGS. 3A to 3H. EpEX induces the activation of ERK and FAK-AKT signaling pathway. Wild type (WT) or EpCAM knockout (KO) HCT116 cells after EpEX-His treatment. (FIG. 3A) The levels of phosphorylated HGFR, AKT, FAK, GSK3β, ERK, ADAM17, and presenilin 2 were assayed by Western blotting. (FIG. 3B) Colony formation was examined by crystal violet staining. (FIG. 3C) HCT116 cells were treated with TAPI (ADAM17 inhibitor) or DAPT (γ-secretase inhibitor) for 24 hours, and the phosphorylation of HGFR, AKT, and ERK was analyzed by Western blotting, and EpEX protein level in culture medium was examined by immunoprecipitation and Western blotting. (FIG. 3D) HCT116 and HT29 cells were starved for 16 h, then treated with EpEX-His (50 nM) and HGF (0.5 nM) for 15 min. […] (FIG. 3H) The numbers of migration cell was assessed by a Transwell after treatment for 24 h.
FIGS. 4A to 4L. […] (FIG. 4A) The protein expression of EMT markers and regulators was detected by Western blotting in Wild-type (WT) or EpCAM knockout (KO) HCT116 cells after EpEX treatment. […] Cell invasion was assessed by a Transwell assay with matrigel. […] Phosphorylated GSK3β, active-β-catenin, and Snail were detected by Western blotting. […] (FIG. 4L) Protein expression was analyzed by Western blotting in EpEX-His (50 nM) treated HCT116 cells after treatment with or without 2 μM GSK3β inhibitor (BIO) for 24 h. […]

Compound: O=c1cc(N2CCOCC2)oc2c(-c3ccccc3)cccc12 [LY294002]
- EpEX-mediated GSK3β activity [1]: attenuate EpEX-mediated GSK3β activity
- EpEX-mediated Snail protein expression [1]: attenuate
- EpEX-induced invasion ([2]; HCT116, 50 nM EpEX, LY 25 μM, U0 20 μM, PF 10 μM, Transwell with matrigel, FIG. 4K): suppressed
- EpEX-induced migration and invasion ([2]; HCT116 cells, discussion statement): attenuate EpEX-induced migration and invasion
